Test results as given in PubChem BioAssay AID587 (National Center for Advancing Translational Sciences (NCATS), 2007).
In all, about 59,000 compounds went through this assay and about 35 (0.06%) were called active. The inconclusive results got no clear call from the source; some entries with a clear call stand among them for comparison. Cut-off read from the data, not from the text of the source: active = max dye-equivalent concentration above about 10 nM; inconclusive = between about 1.1 nM and that limit; inactive = weaker than that.

assay: qHTS Assay for Spectroscopic Profiling in Texas Red Spectral Region; conditions: Compound fluorescence, Texas Red channel, 547/618 nm; stronger effect = higher value
Method in brief: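 qHTS profiling of intrinsic compound fluorescence; 100 mM Tris pH 8.0; 15 min RT; ex 547 / em 618 nm; response expressed as Texas Red dye-equivalent concentration from six-point plate standard.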

SMILES | max dye-equivalent concentration
COc1cc(C(=O)OCC(=O)NC2CCCC2)cc(NC(=O)c2ccco2)c1OC | inactive
COc1ccc(C2C(C(=O)c3sc(C)nc3C)=C(O)C(=O)N2CCCn2ccnc2)cc1 (stereo not drawn) | inconclusive: 1.1 nM
Cc1cccc(N2CCN(C(=O)c3cn(C)c(=O)c4c3c3ccccc3n4C)CC2)c1C | inconclusive: 1.4 nM
Cc1cc(C)c2cc(CN(CCO)Cc3nnnn3Cc3ccccc3)c(=O)[nH]c2c1 | inconclusive: 1.8 nM
O=c1[nH]c2cc(C(F)(F)F)ccc2n1-c1cc(C(F)(F)F)ccc1O | inconclusive: 1.2 nM
Nc1nnc(-c2ccccc2Cl)s1 | inconclusive: 1.9 nM
COC(=O)c1ccccc1NC(=O)CSc1nc(O)cc(=O)n1C1CCCC1 | inconclusive: 2.1 nM
COC(=O)C(NC(C)=O)(Nc1ccc(Br)cc1)C(=O)OC | inconclusive: 1.1 nM
C[Si](C)(c1ccc(C(=O)O)cc1)c1ccc(C(=O)O)cc1 | inactive
COc1cc(NC(=O)c2ncn[nH]2)cc(OC)c1OC | inconclusive: 1.2 nM
COC(=O)c1cc(-c2ccccc2)n(CC(=O)O)c1C | inconclusive: 1.1 nM
Cc1sc2nc(CN3CCN(S(=O)(=O)c4cccc5nonc45)CC3)[nH]c(=O)c2c1C | inconclusive: 1.2 nM
COc1ccc(CNC(=O)C2CCCN(S(=O)(=O)c3cc(C)ccc3OC)C2)cc1 (stereo not drawn) | inconclusive: 1.4 nM
O=C(OCC(O)C(O)COC(=O)c1ccccc1)c1ccccc1 (stereo not drawn) | inactive
O=C(COC(=O)c1cc(S(=O)(=O)N2CCOCC2)cs1)c1ccccc1 | inconclusive: 1.1 nM
Cc1ccc(Cn2c(=N)c(C(=O)NCc3ccco3)cc3c(=O)n4ccccc4nc32)cc1 | inactive
NC(N)=N/N=C(/c1ccccc1)c1ccc(O)cc1O | inactive
Cc1cc(C)n2nc(Nc3ccccc3)cc2n1 | inconclusive: 1.4 nM
CCNc1oc(COc2ccccc2F)nc1C#N | inconclusive: 1.1 nM
CCOC(=O)c1c(NC(=O)COC(=O)Cn2cnc3ccccc32)sc(C)c1C | inconclusive: 1.4 nM
c1ccc(-c2noc(-c3ccc4ccccc4c3)n2)cc1 | inconclusive: 1.3 nM
O=C(c1ccc2ccccc2n1)N1CCN(c2ccccc2)CC1 | inconclusive: 1.7 nM

SMILES | max dye-equivalent concentration
O=C(COc1ccc(Cl)cc1)Nc1ccc(Cl)cn1 | inconclusive: 1.8 nM
O=C(CSc1nc(-c2ccco2)cc(C(F)(F)F)n1)N1CCSCC1 | inconclusive: 1.1 nM
FC(F)(F)c1ccccc1-c1nc(NC2CC2)c2ccccc2n1 | inactive
C=CCNC(=O)c1c(N)n(-c2ccc3c(c2)OCO3)c2nc3ccccc3nc12 | inconclusive: 1.6 nM
COc1ccccc1CNC(=O)CCNC(=O)Cn1ccc2ccccc2c1=O | inconclusive: 1.7 nM
O=C(Nc1scc(-c2ccc(F)cc2)c1C(=O)O)c1ccco1 | inconclusive: 1.1 nM
CCOC(=O)Cc1csc2nc3sc(C)c(C)c3c(=O)n12 | inconclusive: 1.1 nM
COC(=O)c1c(-c2cccnc2)csc1NC(=O)c1cc(C)on1 | inconclusive: 1.4 nM
CCCCC(=O)Nc1sc2c(c1C(N)=O)CCC2 | inconclusive: 1.2 nM
CC1(C)Cc2c(sc3nc(-c4cc5ccccc5o4)n(N)c(=O)c23)CO1 | inconclusive: 1.7 nM
Cn1c(=O)c2c(-c3ccccc3)n(-c3ccccc3O)cc2n(C)c1=O | inconclusive: 1.2 nM
CCOc1ccccc1OCCCCCc1c(C)n[nH]c1C | inconclusive: 1.2 nM
O=C(O)CCc1nc(-c2ccccc2-n2cccc2)no1 | inactive
CCCOCC1CC2(SC(=Nc3ccc(C)cc3)NC2=O)C(=O)O1 (stereo not drawn) | inconclusive: 1.1 nM
COC(=O)[C@H](CCSC)NC(=O)Nc1ccc(C)cc1 | inconclusive: 1.2 nM
CN(C)CCNC(=O)C(C(=O)c1ccccc1)n1ccccc1=O (stereo not drawn) | inactive
CCOC(=O)C1CCN(S(=O)(=O)c2ccc(-n3cnnn3)c(C)c2)CC1 | inconclusive: 1.8 nM
O=C(Oc1cccc(N2C(=O)CCC2=O)c1)C1CC(=O)N(c2ccc(F)cc2)C1 (stereo not drawn) | inconclusive: 2.6 nM
COc1ccc(CC(=O)NC(C)c2nnc(SCC(=O)Nc3nc(C)cs3)n2C)cc1 (stereo not drawn) | inconclusive: 2.2 nM
COc1ccc(CNc2ncncc2-c2ccoc2)c(OC)c1 | inactive
COc1ccc(OC)c([C@H](O)CNC(=O)CN)c1 | inconclusive: 1.2 nM
CCOC(=O)c1ccc(NS(=O)(=O)c2ccc3[nH]c(=O)[nH]c3c2)cc1 | inconclusive: 1.1 nM

Exported as labelled records: entries from further up.
C=CCNC(=O)c1c(N)n(-c2ccc3c(c2)OCO3)c2nc3ccccc3nc12
  max dye-equivalent concentration: inconclusive: 1.6 nM
CCOc1ccccc1OCCCCCc1c(C)n[nH]c1C
  max dye-equivalent concentration: inconclusive: 1.2 nM
CCCOCC1CC2(SC(=Nc3ccc(C)cc3)NC2=O)C(=O)O1 (stereo not drawn)
  max dye-equivalent concentration: inconclusive: 1.1 nM
COc1ccc(OC)c([C@H](O)CNC(=O)CN)c1
  max dye-equivalent concentration: inconclusive: 1.2 nM

Continued.

SMILES | max dye-equivalent concentration
O=C(c1ccc(Cl)cc1)c1ccc(OCC(=O)N2CCOCC2)cc1 | inconclusive: 1.3 nM
CCCOC(=O)c1ccc(Nc2cc(C)nc3ncnn23)cc1 | inconclusive: 1.6 nM
COc1cccc(C2=CC(c3ccccc3)n3ncnc3N2)c1 (stereo not drawn) | inactive
CCSc1nnc(NC(=O)c2cccc(OCc3c(C)noc3C)c2)s1 | inconclusive: 2.6 nM
CC(=O)c1ccc(NC(=O)C2CCC(C)NC2=O)cc1 (stereo not drawn) | inconclusive: 1.4 nM
Cc1cc(C)c2nc(N)sc2c1 | inconclusive: 2.8 nM
Cc1ccc(S(=O)(=O)N(Cc2ccc(F)cc2)Cc2ccco2)cc1 | inconclusive: 1.7 nM
CC1CCCCN1C(=O)CN1C(=O)CN(C)C(=O)c2ccccc21 (stereo not drawn) | inconclusive: 1.2 nM
O=C(Nc1ccc(N2CCOCC2)c(Cl)c1)c1c(F)c(F)c(F)c(F)c1F | inconclusive: 1.1 nM
CCN(CCCn1c(SCC#N)nc2ccccc2c1=O)c1ccccc1 | inconclusive: 1.4 nM
COCC(C)n1c(C)cc(C(=O)COC(=O)c2ccc(N3CCCC3=O)cc2)c1C (stereo not drawn) | inconclusive: 1.6 nM
O=C(OCc1nnc(-c2ccccc2)o1)c1ccc2c(c1)OCO2 | inconclusive: 2.4 nM
CCOc1ccccc1Nc1nnc(SCC(=O)Nc2cc(C)on2)s1 | inconclusive: 1.9 nM
CN(Cc1ccco1)c1ccnc(-c2cccc(C#N)c2)n1 | inactive
O=C1CN(C(=O)c2ccccn2)c2ccccc2N1 | inconclusive: 1.5 nM
Cc1cc(=O)[nH]c(SCc2nc3ccccc3s2)n1 | inconclusive: 1.1 nM
Cc1ccccc1C(=O)c1cccn1CC(=O)N1CCCCCC1 | inconclusive: 2.8 nM
CC(C)CNC(=O)c1cccc(NC(=O)C2CCCO2)c1 (stereo not drawn) | inconclusive: 1.3 nM
CCOc1ccc(C2C(C#N)=C(N)Oc3cc(C)n(CCN(C)C)c(=O)c32)cc1OCC (stereo not drawn) | inconclusive: 1.4 nM
O=S(=O)(c1ccc(OCC(O)CN2CCN(c3ccccc3Cl)CC2)cc1)N1CCOCC1 (stereo not drawn) | inconclusive: 1.2 nM
CN(C)C(=O)c1ccc(-c2cncnc2N(C)Cc2ccco2)cc1 | inactive
COc1cc2nc(N3CCN(C(=O)[C@@H]4CCCO4)CC3)nc(N)c2cc1OC | inconclusive: 1.1 nM

SMILES | max dye-equivalent concentration
CCN(CC)CCn1c(OC)cc(=O)[nH]c1=O | inconclusive: 1.2 nM
COc1ccc(C(=O)CSc2nnc(-c3ccoc3C)n2CC2CCCO2)cc1 (stereo not drawn) | inconclusive: 1.1 nM
COCC(=O)Nc1sc2c(c1C(=O)OC)CCCC2 | inconclusive: 1.6 nM
CC1(C)Cc2cccc(OCC(O)CNCc3ccccn3)c2O1 (stereo not drawn) | inconclusive: 2.1 nM
Cc1ccc(Cn2c(CN(C)Cc3ccccc3)nc3c2c(=O)n(C)c(=O)n3C)cc1 | inconclusive: 1.1 nM
CCN1CCCC1CN(Cc1cc2cc(C)cc(C)c2[nH]c1=O)C(=O)Nc1ccccc1OC (stereo not drawn) | inconclusive: 2 nM
CCCCNC(=O)c1nn(-c2ccccc2OC)c(=O)c2ccccc12 | inconclusive: 1.1 nM
COc1ccc(NC2CC(=O)NC2=O)cc1 (stereo not drawn) | inconclusive: 1.2 nM
Cn1c(=O)c2c(nc(NC(Cc3ccccc3)C(=O)O)n2Cc2ccccc2)n(C)c1=O (stereo not drawn) | inconclusive: 1.1 nM
Cc1cnc(CNc2ncnc3ccc(-c4ccccc4C)cc23)cn1 | inconclusive: 1.1 nM
C/C(=N\[N+](C)(C)C)c1ccc(C)c(C)c1 | inactive
Cc1ccc(NC(=O)Cc2nc(CSc3nnc(-c4ccc5c(c4)OCO5)o3)cs2)cc1 | inconclusive: 1.9 nM
CCCn1nc(C(=O)Nc2cc(C(=O)OC)ccc2C)c2ccccc2c1=O | inconclusive: 1.1 nM
Cn1ccnc1 | inconclusive: 1.1 nM
Cc1ccc(CNC(=O)Cn2ccc3ccccc3c2=O)o1 | inconclusive: 1.3 nM
COc1ccccc1N(CC(O)CN(c1ccccc1)S(C)(=O)=O)S(=O)(=O)c1ccccc1 (stereo not drawn) | inconclusive: 1.3 nM
O=C(O)/C=C\c1c2ccc(=O)c(O)c-2oc2c(O)c(O)ccc12 | inactive
Cc1cccc(-n2c(SCC(=O)NCc3ccco3)nnc2-c2ccco2)c1 | inconclusive: 1.2 nM
CC(=O)OC[C@@H]1O[C@@H](Oc2cc(OC(C)=O)c3c(=O)cc(-c4ccc(OC(C)=O)c(OC(C)=O)c4)oc3c2)[C@H](OC(C)=O)[C@H](OC(C)=O)[C@@H]1OC(C)=O | inactive
O=C1CN(C(=O)c2cccs2)c2ccccc2N1 | inconclusive: 1.1 nM
CC(C)OC(=O)C(C)(C)Oc1ccc(C(=O)c2ccc(Cl)cc2)cc1 | inconclusive: 1.4 nM
CN(C)S(=O)(=O)c1ccc(C(=O)OCC(=O)c2ccc(OC(F)F)cc2OC(F)F)cc1 | inconclusive: 1.1 nM
